Holding throughout (assay): microbe, parasite or virus in culture
For one assay, the system named is E. coli MDR 1057 WT. Particulars: Escherichia coli, MDR1057WT, 24 h, read-out: Minimum Inhibitory Concentration, WT.
The subject of a further assay is E. coli MDR 1057 B2. Particulars: Escherichia coli, MDR1057B2, 24 h, read-out: Minimum Inhibitory Concentration, B2.
Another assay has as its system E. coli MDR 1057 B3. Particulars: Escherichia coli, MDR1057B3, 24 h, read-out: Minimum Inhibitory Concentration, B3.
The test system of a further assay is E. coli MDR 1057 P1. Particulars: Escherichia coli, MDR1057P1, 24 h, read-out: Minimum Inhibitory Concentration, P1.

≈ marks a conversion by molar mass, not a printed value.

In the case of `CCC[C@@H]1C[C@@H](C(=O)N[C@@H]([C@H]2O[C@H](SC)[C@H](O)[C@@H](O)[C@H]2O)[C@H](C)Cl)N(C)C1` [Clindamycin], the MIC with E. coli MDR 1057 WT is 128 µM (≈ 54.4 µg/mL); in the assay with E. coli MDR 1057 B2, 256 µM (≈ 109 µg/mL); in the assay on E. coli MDR 1057 B3 it was 128 µM (≈ 54.4 µg/mL); in the assay with E. coli MDR 1057 P1, 256 µM (≈ 109 µg/mL).
